Patent US20200222474A1, “COMPOSITIONS AND METHODS FOR INCREASING PHYTOCHEMICAL BIOAVAILABLITY AND BIOACTIVITY” (North Carolina State University, priority 2017, published 2020)
The source gives many values for each of these; only a part stands here.

Test system: L. acidophilus NCFM
Assay: RNA-seq transcriptional analysis of L. acidophilus NCFM growing on plant glycosides
Type: cell-based, Lactobacillus acidophilus
[1] = LBA1974 Pyruvate oxidase, COG EH
[2] = gene LBA0802 (Hypothetical protein)
[3] = gene LBA0863 (Hypothetical protein)
[4] = gene LBA0878 (Hypothetical protein)
[5] = gene LBA0888 (Hypothetical protein)
[6] = gene LBA0987 (Hypothetical protein)
[7] = gene LBA1019 (Mucus binding protein)
[8] = gene LBA1020 (Mucus binding protein)
[9] = gene LBA1227 (Hypothetical protein)
[10] = gene LBA1370 (Putative bacteriophage-related protein)
[11] = gene LBA1409 (Hypothetical protein LBA1409)
[12] = gene LBA1460 (Mucus binding protein precursor)
[13] = gene LBA1461 (Putative regulator)
[14] = gene LBA1539 (Hypothetical protein)
[15] = gene LBA1608 (Hypothetical protein)
[16] = gene LBA1612 (Fibrinogen-binding protein)
[17] = gene LBA1652 (Mucus binding protein precursor Mub)
[18] = gene LBA1655 (Hypothetical protein)
[19] = gene LBA1686 (Hypothetical protein)
[20] = gene LBA1693 (Hypothetical protein)
[21] = gene LBA1694 (Hypothetical protein)
[22] = gene LBA1709 (Mucus binding protein precursor Mub)
[23] = gene LBA1784 (Hypothetical protein)
[24] = gene LBA1786 (Hypothetical protein)
[25] = gene LBA1791 (Hypothetical protein)
[26] = gene LBA1792 (Hypothetical protein)
[27] = gene LBA1794 (Gassericin K7 B accessory protein)
[28] = gene LBA1797 (Hypothetical protein)
[29] = gene LBA1801 (Hypothetical protein)
[30] = gene LBA1802 (Hypothetical protein)
[31] = gene LBA1803 (Hypothetical protein.)
[32] = gene LBA1804 (Hypothetical protein)
[33] = gene LBA1805 (Hypothetical protein)
[34] = gene without printed locus tag, last line of Table 5 (Hypothetical protein)

In the case of `OCc1ccccc1O[C@@H]1O[C@H](CO)[C@@H](O)[C@H](O)[C@H]1O` [Salicin], the “Log2 differential normalized TPM ratio compared to glucose” value [1] is reported as 1.8, the “Log2 differential normalized TPM ratio compared to lactose” value [1] is reported as −0.6 and the “Transcripts per million (rpm)” value [1] is reported as 306.8 rpm. The “Log2 differential normalized TPM ratio compared to glucose” value [2] was 0, the “Transcripts per million (rpm)” value [2] was 35.1 rpm and the “Log2 differential normalized TPM ratio compared to glucose” value [3] was 0.2. The “Log2 differential normalized TPM ratio compared to lactose” value [3] was −0.6, the “Transcripts per million (rpm)” value [3] was 58.6 rpm and the “Log2 differential normalized TPM ratio compared to glucose” value [4] was 1.5. For the same compound, the “Log2 differential normalized TPM ratio compared to lactose” value [4] was 0.3, the “Transcripts per million (rpm)” value [4] was 10.9 rpm and the “Log2 differential normalized TPM ratio compared to glucose” value [5] was 1.3. The “Log2 differential normalized TPM ratio compared to lactose” value [5] was 0.2, the “Transcripts per million (rpm)” value [5] was 76.2 rpm and the “Log2 differential normalized TPM ratio compared to glucose” value [6] was 2.7. The “Log2 differential normalized TPM ratio compared to lactose” value [6] was −0.3, the “Transcripts per million (rpm)” value [6] was 294.5 rpm and the “Log2 differential normalized TPM ratio compared to glucose” value [7] was 1. The “Log2 differential normalized TPM ratio compared to lactose” value [7] was 0, the “Transcripts per million (rpm)” value [7] was 26.5 rpm and the “Log2 differential normalized TPM ratio compared to glucose” value [8] was −0.5. The “Log2 differential normalized TPM ratio compared to lactose” value [8] was −0.6, the “Transcripts per million (rpm)” value [8] was 106.2 rpm and the “Log2 differential normalized TPM ratio compared to glucose” value [9] was 0.7. For the same compound, the “Log2 differential normalized TPM ratio compared to lactose” value [9] was 0.2, the “Transcripts per million (rpm)” value [9] was 117.3 rpm and the “Log2 differential normalized TPM ratio compared to glucose” value [10] was 0.9. For the same compound, the “Log2 differential normalized TPM ratio compared to lactose” value [10] was 0.4, the “Transcripts per million (rpm)” value [10] was 73.1 rpm and the “Log2 differential normalized TPM ratio compared to glucose” value [11] was 0.7. The “Log2 differential normalized TPM ratio compared to lactose” value [11] was 0, the “Transcripts per million (rpm)” value [11] was 7.3 rpm and the “Log2 differential normalized TPM ratio compared to glucose” value [12] was −0.4. For the same compound, the “Log2 differential normalized TPM ratio compared to lactose” value [12] was −4.6, the “Transcripts per million (rpm)” value [12] was 7.9 rpm and the “Log2 differential normalized TPM ratio compared to glucose” value [13] was 0.3. For the same compound, the “Log2 differential normalized TPM ratio compared to lactose” value [13] was −4.6, the “Transcripts per million (rpm)” value [13] was 7.3 rpm and the “Log2 differential normalized TPM ratio compared to glucose” value [14] was 1.8. For the same compound, the “Log2 differential normalized TPM ratio compared to lactose” value [14] was −0.9, the “Transcripts per million (rpm)” value [14] was 86.5 rpm and the “Log2 differential normalized TPM ratio compared to glucose” value [15] was 1.1. For the same compound, the “Log2 differential normalized TPM ratio compared to lactose” value [15] was 0.4, the “Transcripts per million (rpm)” value [15] was 46.3 rpm and the “Log2 differential normalized TPM ratio compared to glucose” value (gene LBA1611 (Surface protein)) was 0.8. For the same compound, the “Log2 differential normalized TPM ratio compared to lactose” value (gene LBA1611 (Surface protein)) was 1.3, the “Transcripts per million (rpm)” value (gene LBA1611 (Surface protein)) was 294.6 rpm and the “Log2 differential normalized TPM ratio compared to glucose” value [16] was 0.8. The “Log2 differential normalized TPM ratio compared to lactose” value [16] was 0.7, the “Transcripts per million (rpm)” value [16] was 238.7 rpm and the “Log2 differential normalized TPM ratio compared to glucose” value (gene LBA1633 (Surface protein)) was 0.9. For the same compound, the “Log2 differential normalized TPM ratio compared to lactose” value (gene LBA1633 (Surface protein)) was −0.3, the “Transcripts per million (rpm)” value (gene LBA1633 (Surface protein)) was 14.1 rpm and the “Log2 differential normalized TPM ratio compared to glucose” value [17] was 1. For the same compound, the “Log2 differential normalized TPM ratio compared to lactose” value [17] was 0.4, the “Transcripts per million (rpm)” value [17] was 23.6 rpm and the “Log2 differential normalized TPM ratio compared to glucose” value [18] was 0.5. For the same compound, the “Log2 differential normalized TPM ratio compared to lactose” value [18] was 0.2, the “Transcripts per million (rpm)” value [18] was 6.1 rpm and the “Log2 differential normalized TPM ratio compared to glucose” value [19] was −0.9. For the same compound, the “Log2 differential normalized TPM ratio compared to lactose” value [19] was −0.6, the “Transcripts per million (rpm)” value [19] was 100.9 rpm and the “Log2 differential normalized TPM ratio compared to glucose” value [20] was 0.1. For the same compound, the “Log2 differential normalized TPM ratio compared to lactose” value [20] was −0.9, the “Transcripts per million (rpm)” value [20] was 120.8 rpm and the “Log2 differential normalized TPM ratio compared to glucose” value [21] was −0.2. For the same compound, the “Log2 differential normalized TPM ratio compared to lactose” value [21] was −1.2, the “Transcripts per million (rpm)” value [21] was 74.1 rpm and the “Log2 differential normalized TPM ratio compared to glucose” value [22] was 0.5. For the same compound, the “Log2 differential normalized TPM ratio compared to lactose” value [22] was 0.1, the “Transcripts per million (rpm)” value [22] was 3.9 rpm and the “Log2 differential normalized TPM ratio compared to glucose” value [23] was 0.4. The “Log2 differential normalized TPM ratio compared to lactose” value [23] was −1.6, the “Transcripts per million (rpm)” value [23] was 58.6 rpm and the “Log2 differential normalized TPM ratio compared to glucose” value [24] was 0.6. The “Log2 differential normalized TPM ratio compared to lactose” value [24] was −1.6, the “Transcripts per million (rpm)” value [24] was 38.1 rpm and the “Log2 differential normalized TPM ratio compared to glucose” value [25] was 0.1. The “Log2 differential normalized TPM ratio compared to lactose” value [25] was −2.1, the “Transcripts per million (rpm)” value [25] was 20.1 rpm and the “Log2 differential normalized TPM ratio compared to glucose” value [26] was 0.6. For the same compound, the “Log2 differential normalized TPM ratio compared to lactose” value [26] was −1.8, the “Transcripts per million (rpm)” value [26] was 21.9 rpm and the “Log2 differential normalized TPM ratio compared to glucose” value [27] was 0.5. For the same compound, the “Log2 differential normalized TPM ratio compared to lactose” value [27] was −1.8, the “Transcripts per million (rpm)” value [27] was 20.8 rpm and the “Log2 differential normalized TPM ratio compared to glucose” value [28] was 1.3. The “Log2 differential normalized TPM ratio compared to lactose” value [28] was −3.6, the “Transcripts per million (rpm)” value [28] was 326.4 rpm and the “Log2 differential normalized TPM ratio compared to glucose” value [29] was 0.8. For the same compound, the “Log2 differential normalized TPM ratio compared to lactose” value [29] was −1.7, the “Transcripts per million (rpm)” value [29] was 7.6 rpm and the “Log2 differential normalized TPM ratio compared to glucose” value [30] was 0.7. The “Log2 differential normalized TPM ratio compared to lactose” value [30] was −1.9, the “Transcripts per million (rpm)” value [30] was 12.4 rpm and the “Log2 differential normalized TPM ratio compared to glucose” value [31] was 0.7. For the same compound, the “Log2 differential normalized TPM ratio compared to lactose” value [31] was −2.4, the “Transcripts per million (rpm)” value [31] was 21.6 rpm and the “Log2 differential normalized TPM ratio compared to glucose” value [32] was 0.7. The “Log2 differential normalized TPM ratio compared to lactose” value [32] was −3, the “Transcripts per million (rpm)” value [32] was 30.7 rpm and the “Log2 differential normalized TPM ratio compared to glucose” value [33] was 1. The “Log2 differential normalized TPM ratio compared to lactose” value [33] was −2.9, the “Transcripts per million (rpm)” value [33] was 61.1 rpm and the “Log2 differential normalized TPM ratio compared to glucose” value [34] was 0.4. The “Log2 differential normalized TPM ratio compared to lactose” value [34] was 0.2 and the “Transcripts per million (rpm)” value [34] was 25.3 rpm.
